Test results taken from the supplement of paper PMC10849652.
The list shows a part of the results.

Protein sequences, listed by entry. Tags and fused reporters are not part of them. Lines headed by an entry give the natural chain unless they say otherwise; changes in a name come on top.
UniProt Q96GA3: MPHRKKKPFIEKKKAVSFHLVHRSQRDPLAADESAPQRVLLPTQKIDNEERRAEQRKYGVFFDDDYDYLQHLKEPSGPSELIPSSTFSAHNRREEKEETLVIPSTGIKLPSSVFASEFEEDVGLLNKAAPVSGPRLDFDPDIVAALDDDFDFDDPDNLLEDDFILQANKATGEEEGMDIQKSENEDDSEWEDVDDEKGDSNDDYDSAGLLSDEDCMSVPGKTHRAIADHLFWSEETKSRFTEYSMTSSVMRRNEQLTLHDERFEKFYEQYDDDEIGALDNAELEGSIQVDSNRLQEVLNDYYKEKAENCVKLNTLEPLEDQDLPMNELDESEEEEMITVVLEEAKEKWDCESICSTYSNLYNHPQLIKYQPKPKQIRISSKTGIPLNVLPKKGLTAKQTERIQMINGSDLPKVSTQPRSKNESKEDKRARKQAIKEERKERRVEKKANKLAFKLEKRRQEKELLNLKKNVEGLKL
UniProt P27448: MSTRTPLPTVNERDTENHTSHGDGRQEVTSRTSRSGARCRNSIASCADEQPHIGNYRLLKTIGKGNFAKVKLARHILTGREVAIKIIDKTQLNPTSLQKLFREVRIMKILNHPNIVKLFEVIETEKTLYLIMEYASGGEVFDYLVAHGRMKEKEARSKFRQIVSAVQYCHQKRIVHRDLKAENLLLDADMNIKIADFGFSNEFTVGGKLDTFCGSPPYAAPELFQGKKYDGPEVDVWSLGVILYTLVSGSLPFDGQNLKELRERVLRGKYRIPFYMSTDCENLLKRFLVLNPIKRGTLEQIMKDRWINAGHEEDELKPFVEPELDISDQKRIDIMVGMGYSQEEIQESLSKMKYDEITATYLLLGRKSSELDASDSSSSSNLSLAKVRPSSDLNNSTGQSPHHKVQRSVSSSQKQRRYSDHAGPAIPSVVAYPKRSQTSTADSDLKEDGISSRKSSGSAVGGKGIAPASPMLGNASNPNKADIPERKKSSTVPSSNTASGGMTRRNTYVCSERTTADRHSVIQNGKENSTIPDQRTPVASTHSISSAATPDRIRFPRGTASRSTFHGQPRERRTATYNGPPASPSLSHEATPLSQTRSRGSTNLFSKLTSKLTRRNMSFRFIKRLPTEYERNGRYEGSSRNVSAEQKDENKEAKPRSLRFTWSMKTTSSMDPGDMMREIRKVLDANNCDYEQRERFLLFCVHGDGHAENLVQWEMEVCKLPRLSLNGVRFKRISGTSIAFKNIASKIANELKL
UniProt Q9NX47: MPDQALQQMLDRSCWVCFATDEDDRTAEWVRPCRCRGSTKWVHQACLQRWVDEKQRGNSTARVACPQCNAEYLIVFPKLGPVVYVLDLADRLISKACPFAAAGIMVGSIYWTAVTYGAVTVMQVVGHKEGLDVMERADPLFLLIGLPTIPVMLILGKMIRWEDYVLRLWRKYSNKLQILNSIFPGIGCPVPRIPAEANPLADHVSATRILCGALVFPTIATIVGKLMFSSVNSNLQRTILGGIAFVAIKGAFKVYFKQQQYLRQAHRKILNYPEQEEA
UniProt Q16539, whole entry, looked up: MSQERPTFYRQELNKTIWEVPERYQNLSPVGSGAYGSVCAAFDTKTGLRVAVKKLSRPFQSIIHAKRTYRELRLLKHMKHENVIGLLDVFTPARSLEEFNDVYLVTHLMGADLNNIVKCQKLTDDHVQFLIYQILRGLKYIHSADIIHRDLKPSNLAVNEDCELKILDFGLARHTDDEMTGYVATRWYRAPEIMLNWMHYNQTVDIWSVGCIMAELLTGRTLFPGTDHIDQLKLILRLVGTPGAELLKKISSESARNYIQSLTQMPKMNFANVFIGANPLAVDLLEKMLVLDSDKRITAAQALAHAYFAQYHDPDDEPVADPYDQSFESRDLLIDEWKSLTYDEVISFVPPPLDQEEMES
UniProt Q8IW41: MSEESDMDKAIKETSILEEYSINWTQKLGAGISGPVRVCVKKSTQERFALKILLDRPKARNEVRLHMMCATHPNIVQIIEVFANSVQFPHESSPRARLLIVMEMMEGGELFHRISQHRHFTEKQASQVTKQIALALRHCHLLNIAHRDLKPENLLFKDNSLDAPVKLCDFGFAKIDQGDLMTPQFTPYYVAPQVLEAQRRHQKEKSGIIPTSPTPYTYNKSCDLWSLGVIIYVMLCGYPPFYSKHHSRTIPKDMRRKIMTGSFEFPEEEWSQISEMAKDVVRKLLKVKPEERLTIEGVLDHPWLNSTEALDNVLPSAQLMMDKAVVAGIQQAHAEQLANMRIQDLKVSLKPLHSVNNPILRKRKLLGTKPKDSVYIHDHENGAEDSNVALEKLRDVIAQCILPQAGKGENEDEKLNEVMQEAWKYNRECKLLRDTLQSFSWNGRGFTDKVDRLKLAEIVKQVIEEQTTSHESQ
UniProt Q9UPT6: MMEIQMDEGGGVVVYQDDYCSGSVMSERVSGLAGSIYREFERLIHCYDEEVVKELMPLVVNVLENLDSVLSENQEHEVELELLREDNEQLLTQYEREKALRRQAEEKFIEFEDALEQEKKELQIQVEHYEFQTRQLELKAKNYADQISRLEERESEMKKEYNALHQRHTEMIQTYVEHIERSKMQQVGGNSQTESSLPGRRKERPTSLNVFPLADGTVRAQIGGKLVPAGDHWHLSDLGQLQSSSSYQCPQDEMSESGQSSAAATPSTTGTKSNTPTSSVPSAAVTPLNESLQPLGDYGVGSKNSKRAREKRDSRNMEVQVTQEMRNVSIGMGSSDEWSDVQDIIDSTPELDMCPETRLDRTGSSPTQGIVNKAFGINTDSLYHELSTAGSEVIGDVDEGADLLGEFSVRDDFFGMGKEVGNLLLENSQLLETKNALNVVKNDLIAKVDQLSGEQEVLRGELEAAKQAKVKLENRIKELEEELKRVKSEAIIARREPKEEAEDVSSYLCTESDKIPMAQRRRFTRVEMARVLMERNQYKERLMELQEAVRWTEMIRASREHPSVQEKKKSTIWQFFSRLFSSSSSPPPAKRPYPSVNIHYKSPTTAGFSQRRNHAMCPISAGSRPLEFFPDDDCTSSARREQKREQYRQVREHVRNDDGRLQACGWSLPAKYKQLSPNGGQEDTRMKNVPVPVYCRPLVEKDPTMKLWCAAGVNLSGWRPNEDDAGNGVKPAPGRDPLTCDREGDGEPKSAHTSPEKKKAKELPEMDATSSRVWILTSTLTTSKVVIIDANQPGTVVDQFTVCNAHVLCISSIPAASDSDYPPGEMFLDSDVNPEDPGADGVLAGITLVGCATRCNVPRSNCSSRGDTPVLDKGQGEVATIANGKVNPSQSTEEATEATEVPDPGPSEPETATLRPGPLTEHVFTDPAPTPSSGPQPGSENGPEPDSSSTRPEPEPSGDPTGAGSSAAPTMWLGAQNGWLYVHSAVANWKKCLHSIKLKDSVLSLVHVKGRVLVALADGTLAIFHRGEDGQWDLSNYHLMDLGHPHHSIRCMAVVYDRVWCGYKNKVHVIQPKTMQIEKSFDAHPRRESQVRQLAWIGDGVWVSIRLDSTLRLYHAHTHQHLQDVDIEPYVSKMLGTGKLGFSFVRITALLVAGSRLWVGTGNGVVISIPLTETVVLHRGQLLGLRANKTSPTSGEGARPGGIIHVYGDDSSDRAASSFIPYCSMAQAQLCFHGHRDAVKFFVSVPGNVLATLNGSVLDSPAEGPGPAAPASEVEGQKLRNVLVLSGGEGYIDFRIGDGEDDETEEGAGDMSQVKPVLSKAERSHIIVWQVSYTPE
UniProt Q15013: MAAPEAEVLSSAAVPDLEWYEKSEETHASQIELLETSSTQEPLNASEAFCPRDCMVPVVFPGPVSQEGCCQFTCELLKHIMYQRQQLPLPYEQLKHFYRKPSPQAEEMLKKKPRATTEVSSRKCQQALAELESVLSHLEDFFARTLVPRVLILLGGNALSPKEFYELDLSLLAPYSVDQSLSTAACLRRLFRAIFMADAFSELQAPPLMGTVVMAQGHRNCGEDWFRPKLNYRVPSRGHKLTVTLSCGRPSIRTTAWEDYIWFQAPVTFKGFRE
UniProt P33908: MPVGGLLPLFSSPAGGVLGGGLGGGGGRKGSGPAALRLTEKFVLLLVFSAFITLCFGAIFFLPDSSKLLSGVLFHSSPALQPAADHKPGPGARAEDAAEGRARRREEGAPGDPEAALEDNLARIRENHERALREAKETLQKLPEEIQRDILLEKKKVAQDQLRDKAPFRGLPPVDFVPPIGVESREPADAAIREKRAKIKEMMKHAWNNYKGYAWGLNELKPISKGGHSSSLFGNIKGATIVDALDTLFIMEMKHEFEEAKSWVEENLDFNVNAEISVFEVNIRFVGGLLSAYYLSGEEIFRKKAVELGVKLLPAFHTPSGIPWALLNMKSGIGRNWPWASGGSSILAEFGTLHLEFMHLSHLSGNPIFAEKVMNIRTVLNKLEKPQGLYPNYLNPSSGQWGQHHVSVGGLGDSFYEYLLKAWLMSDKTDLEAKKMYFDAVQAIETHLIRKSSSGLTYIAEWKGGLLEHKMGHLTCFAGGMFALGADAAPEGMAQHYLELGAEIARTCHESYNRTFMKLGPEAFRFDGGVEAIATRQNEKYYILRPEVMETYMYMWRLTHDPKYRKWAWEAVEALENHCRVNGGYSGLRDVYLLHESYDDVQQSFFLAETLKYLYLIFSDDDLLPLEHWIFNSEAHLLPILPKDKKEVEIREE
UniProt Q9HD34: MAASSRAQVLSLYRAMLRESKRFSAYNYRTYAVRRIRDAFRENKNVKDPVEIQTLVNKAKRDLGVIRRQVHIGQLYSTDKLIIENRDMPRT
UniProt P45983: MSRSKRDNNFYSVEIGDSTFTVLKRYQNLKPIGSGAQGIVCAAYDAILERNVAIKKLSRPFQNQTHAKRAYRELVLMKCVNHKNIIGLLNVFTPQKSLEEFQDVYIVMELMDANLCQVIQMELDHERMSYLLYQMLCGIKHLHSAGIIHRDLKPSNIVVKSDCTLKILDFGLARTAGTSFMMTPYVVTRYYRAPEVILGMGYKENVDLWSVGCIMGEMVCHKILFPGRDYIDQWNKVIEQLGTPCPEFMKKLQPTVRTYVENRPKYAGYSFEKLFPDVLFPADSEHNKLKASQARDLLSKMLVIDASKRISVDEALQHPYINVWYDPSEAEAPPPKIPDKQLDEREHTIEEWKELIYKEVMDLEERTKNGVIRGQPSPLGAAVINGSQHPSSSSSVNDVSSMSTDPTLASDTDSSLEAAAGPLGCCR
UniProt O00754: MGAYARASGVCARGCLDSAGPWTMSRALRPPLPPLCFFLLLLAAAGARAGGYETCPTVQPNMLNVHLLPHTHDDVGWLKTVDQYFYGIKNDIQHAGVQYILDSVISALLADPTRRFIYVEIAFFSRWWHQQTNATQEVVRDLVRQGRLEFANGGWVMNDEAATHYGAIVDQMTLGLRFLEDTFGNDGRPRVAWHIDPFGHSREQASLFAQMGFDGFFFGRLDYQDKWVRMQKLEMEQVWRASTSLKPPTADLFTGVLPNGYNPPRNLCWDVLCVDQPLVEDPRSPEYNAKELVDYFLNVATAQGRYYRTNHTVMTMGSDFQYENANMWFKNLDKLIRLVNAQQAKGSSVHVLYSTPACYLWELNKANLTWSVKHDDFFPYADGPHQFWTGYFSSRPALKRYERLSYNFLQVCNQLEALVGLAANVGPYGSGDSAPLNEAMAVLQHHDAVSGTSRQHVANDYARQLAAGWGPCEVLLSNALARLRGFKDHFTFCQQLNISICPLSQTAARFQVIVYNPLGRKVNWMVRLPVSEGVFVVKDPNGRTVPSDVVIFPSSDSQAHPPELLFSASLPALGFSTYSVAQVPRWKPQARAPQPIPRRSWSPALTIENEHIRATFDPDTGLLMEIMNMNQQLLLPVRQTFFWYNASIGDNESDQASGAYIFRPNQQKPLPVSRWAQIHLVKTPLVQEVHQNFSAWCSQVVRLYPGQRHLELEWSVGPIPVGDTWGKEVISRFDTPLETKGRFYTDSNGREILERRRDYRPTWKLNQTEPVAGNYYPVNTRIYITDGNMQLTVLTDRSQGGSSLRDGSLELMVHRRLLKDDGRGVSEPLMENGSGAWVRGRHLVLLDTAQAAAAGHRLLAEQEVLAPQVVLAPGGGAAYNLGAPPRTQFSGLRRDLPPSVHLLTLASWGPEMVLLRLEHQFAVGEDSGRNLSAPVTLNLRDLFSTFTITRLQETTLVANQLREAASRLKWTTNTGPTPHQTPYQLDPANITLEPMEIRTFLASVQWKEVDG

How the values were obtained:
Assay in all cases: log2 fold change, soluble protein after heating vs DMSO (PISA); higher = thermal stabilisation; K562 lysate, 10 uM; active = over 0.2 and 3.5 SD of the protein, either way, in both replicates (recomputed)
vemurafenib = compound: CCCS(=O)(=O)Nc1ccc(F)c(C(=O)c2c[nH]c3ncc(-c4ccc(Cl)cc4)cc23)c1F [vemurafenib]
Procedure, shortened: (§1)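 Thermal stability, expressed as log-two fold change relative to solvent controls, is given from duplicates. Crude K562 extract in PBS pH 7.4 with 1 mM MgCl2, at 1 mg/mL protein, was treated with 10 μM compound for 30 min and heated in aliquots for 3 min across 48°C-58°C. After pooling, adjustment to 0.5% NP-40 at 4°C and centrifugation at 21,000xg for 90 min, supernatant protein was measured by TMTpro 16plex LC-MS/MS with channel sums equalised.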

[1] = compound: CCCS(=O)(=O)Nc1ccc(F)c(C(=O)c2c[nH]c3ncc(Cl)cc23)c1F
Procedure, shortened: as §1

barasertib = compound: CCN(CCCOc1ccc2c(Nc3cc(CC(=O)Nc4cccc(F)c4)[nH]n3)ncnc2c1)CCOP(=O)(O)O [barasertib]
Procedure, shortened: as §1

[2] = compound: CC[C@@H]1C(=O)N(C)c2cnc(Nc3ccc(C(=O)NC4CCN(C)CC4)cc3OC)nc2N1C1CCCC1
Procedure, shortened: as §1

volasertib = compound: CC[C@@H]1C(=O)N(C)c2cnc(Nc3ccc(C(=O)N[C@H]4CC[C@H](N5CCN(CC6CC6)CC5)CC4)cc3OC)nc2N1C(C)C [volasertib]
Procedure, shortened: as §1

[3] = compound: CCn1c(C(=O)N(C2CC2)C2CC2)cc2c3c(ncn3C)c(Nc3cc(C)n(C)n3)nc21
Procedure, shortened: as §1

[4] = compound: CCn1cc(-c2ccnc3[nH]c(-c4cccc(CN(C)C)c4)cc23)c(-c2ccc(NC(=O)N(C)C)cc2)n1
Procedure, shortened: as §1

[5] = compound: CN1CCC(CNc2ccc3ncc(-c4cccc(OC(F)(F)F)c4)n3n2)CC1
Procedure, shortened: as §1

saracatinib = compound: CN1CCN(CCOc2cc(OC3CCOCC3)c3c(Nc4c(Cl)ccc5c4OCO5)ncnc3c2)CC1 [saracatinib]
Procedure, shortened: as §1

sotrastaurin = compound: CN1CCN(c2nc(C3=C(c4c[nH]c5ccccc45)C(=O)NC3=O)c3ccccc3n2)CC1 [sotrastaurin]
Procedure, shortened: as §1

alvocidib = compound: CN1CC[C@H](c2c(O)cc(O)c3c(=O)cc(-c4ccccc4Cl)oc23)[C@H](O)C1 [alvocidib]
Procedure, shortened: as §1

Tubastatin A = compound: CN1CCc2c(c3ccccc3n2Cc2ccc(C(=O)NO)cc2)C1 [Tubastatin A]
Procedure, shortened: as §1

[6] = compound: CNC(=O)C1=CC=CC=C1NC2=NC(=NC=C2Cl)NC3=C(C=C(C=C3)N4CCOCC4)OC
Procedure, shortened: as §1

defactinib = compound: CNC(=O)c1ccc(Nc2ncc(C(F)(F)F)c(NCc3nccnc3N(C)S(C)(=O)=O)n2)cc1 [defactinib]
Procedure, shortened: as §1

[7] = compound: CNc1nc(-c2ccc3c(N)n[nH]c3c2)cc(N2C[C@@H](C(=O)NC3CCCCC3)CC[C@H]2C)n1
Procedure, shortened: as §1

encorafenib = compound: COC(=O)N[C@@H](C)CNc1nccc(-c2cn(C(C)C)nc2-c2cc(Cl)cc(NS(C)(=O)=O)c2F)n1 [encorafenib]
Procedure, shortened: as §1

[8] = compound: COC(=O)[C@H](CCSC)NC(=O)C1=C(C=C(C=C1)NC[C@H](CS)N)C2=CC=CC=C2
Procedure, shortened: as §1

alisertib = compound: COc1cc(Nc2ncc3c(n2)-c2ccc(Cl)cc2C(c2c(F)cccc2OC)=NC3)ccc1C(=O)O [alisertib]
Procedure, shortened: as §1

[9] = compound: COc1cc2nc(-c3cc(F)ccc3O)nc(N[C@@H]3CNC[C@H]3C(C)(C)O)c2cc1OC
Procedure, shortened: as §1

gefitinib = compound: COc1cc2ncnc(Nc3ccc(F)c(Cl)c3)c2cc1OCCCN1CCOCC1 [gefitinib]
Procedure, shortened: as §1

Measured: log2 fold change

MAGI1 isoform 6 (UniProt Q96QZ7)
inactive: vemurafenib 0.01 | [1] 0.035 | barasertib 0.032 | [2] -0.033 | volasertib 0.002 | [3] -0.024 | [4] 0.023 | [5] 0.036 | saracatinib -0.011 | sotrastaurin 0.006 | alvocidib -0.137 | Tubastatin A 0.026 | [6] -0.055 | defactinib -0.009 | [7] 0.038 | encorafenib -0.002 | [8] -0.003 | alisertib 0.033 | [9] 0.008 | gefitinib 0.012

LTV1 (UniProt Q96GA3)
inactive: vemurafenib 0.018 | [1] 0.019 | barasertib -0.01 | [2] 0.004 | volasertib -0.031 | [3] -0.012 | [4] 0.028 | [5] -0.07 | saracatinib 0.014 | sotrastaurin -0.001 | alvocidib 0.034 | Tubastatin A -0.045 | [6] 0.005 | defactinib 0.022 | [7] 0.013 | encorafenib 0.006 | [8] -0.057 | alisertib 0.042 | [9] 0.003 | gefitinib -0.011

MARK3 (UniProt P27448)
inactive: vemurafenib -0.003 | [1] 0.036 | barasertib -0.001 | [2] 0.038 | volasertib 0.042 | [3] 0.005 | [4] -0.114 | [5] -0.237 | saracatinib -0.015 | sotrastaurin -0.228 | alvocidib -0.071 | Tubastatin A -0.119 | [6] -0.188 | defactinib -0.158 | [7] 0.113 | encorafenib 0.038 | [8] 0.129 | alisertib 0.006 | [9] 0.003 | gefitinib -0.02

MARCHF5 (UniProt Q9NX47)
inactive: vemurafenib 0.019 | [1] 0.019 | barasertib 0.026 | [2] 0.089 | volasertib 0.024 | [3] -0.068 | [4] -0.106 | [5] 0.044 | saracatinib 0.068 | sotrastaurin -0.022 | alvocidib -0.045 | Tubastatin A 0.038 | [6] 0.004 | defactinib -0.009 | [7] 0.025 | encorafenib -0.026 | [8] 0.074 | alisertib 0.062 | [9] -0.006 | gefitinib 0

MAP4 (UniProt E7EVA0)
inactive: vemurafenib -0.019 | [1] 0.01 | barasertib 0.04 | [2] 0.125 | volasertib -0.021 | [3] -0.141 | [4] -0.024 | [5] 0.029 | saracatinib 0.024 | sotrastaurin -0.008 | alvocidib -0.074 | Tubastatin A 0.1 | [6] 0 | defactinib 0.01 | [7] 0.037 | encorafenib -0.04 | [8] -0.117 | alisertib -0.028 | [9] 0.054 | gefitinib 0.098

MAPK14 (UniProt Q16539)
inactive: vemurafenib 0.175 | [1] 0.081 | barasertib 0.021 | [2] -0.192 | volasertib -0.056 | [3] -0.052 | [4] -0.035 | [5] 0.093 | saracatinib 0.226 | sotrastaurin -0.058 | alvocidib 0.007 | Tubastatin A -0.203 | [6] 0.38 | defactinib -0.053 | [7] -0.043 | encorafenib 0.488 | [8] 0.314 | alisertib -0.144 | [9] 0.011 | gefitinib 0.295

MAPKAPK5 (UniProt Q8IW41)
inactive: vemurafenib -0.111 | [1] -0.11 | barasertib -0.013 | [2] -0.009 | volasertib -0.052 | [3] 0.031 | [4] 0.017 | [5] -0.02 | saracatinib -0.009 | sotrastaurin -0.068 | alvocidib 0.055 | Tubastatin A 0 | [6] 0.006 | defactinib 0.003 | [7] -0.089 | encorafenib -0.074 | [8] -0.125 | alisertib -0.006 | [9] 0.01 | gefitinib 0.019

MAPK8IP3 (UniProt Q9UPT6)
inactive: vemurafenib -0.064 | [1] -0.012 | barasertib -0.019 | [2] -0.06 | volasertib -0.027 | [3] 0.011 | [4] 0.038 | [5] 0.013 | saracatinib 0.021 | sotrastaurin 0.069 | alvocidib 0.022 | Tubastatin A 0.017 | [6] 0.018 | defactinib 0.018 | [7] -0.026 | encorafenib 0.024 | [8] -0.015 | alisertib 0.02 | [9] 0.025 | gefitinib 0.052

MAD2L1BP isoform 3 (UniProt Q15013)
inactive: vemurafenib 0.003 | [1] 0.009 | barasertib 0.054 | [2] -0.076 | volasertib -0.042 | [3] 0.022 | [4] 0 | [5] 0.03 | saracatinib 0.021 | sotrastaurin 0.01 | alvocidib 0.047 | Tubastatin A -0.135 | [6] 0.088 | defactinib 0.068 | [7] -0.012 | encorafenib 0.138 | [8] 0.234 | alisertib 0.052 | [9] -0.009 | gefitinib -0.054

MAP1LC3B2 (UniProt A6NCE7)
inactive: vemurafenib 0.014 | [1] -0.017 | barasertib 0.035 | [2] -0.031 | volasertib 0 | [3] -0.022 | [4] 0.032 | [5] 0.011 | saracatinib -0.01 | sotrastaurin 0.008 | alvocidib 0.014 | Tubastatin A 0.01 | [6] -0.04 | defactinib 0.024 | [7] 0.015 | encorafenib -0.046 | [8] -0.018 | alisertib -0.011 | [9] 0.008 | gefitinib 0.017

MAN1A1 (UniProt P33908)
inactive: vemurafenib -0.049 | [1] -0.033 | barasertib -0.015 | [2] -0.065 | volasertib 0.026 | [3] 0.065 | [4] -0.036 | [5] 0.06 | saracatinib 0.038 | sotrastaurin 0.002 | alvocidib -0.015 | Tubastatin A 0.001 | [6] 0.049 | defactinib 0.006 | [7] -0.104 | encorafenib 0.005 | [8] -0.001 | alisertib -0.021 | [9] -0.001 | gefitinib 0.029

LYRM4 (UniProt Q9HD34)
inactive: vemurafenib 0.026 | [1] 0.015 | barasertib -0.04 | [2] -0.051 | volasertib 0.021 | [3] 0.03 | [5] -0.035 | saracatinib 0.007 | sotrastaurin -0.05 | alvocidib 0.013 | Tubastatin A 0.068 | [6] -0.042 | defactinib 0 | [7] 0.036 | encorafenib -0.008 | [8] 0 | alisertib 0.007 | [9] 0 | gefitinib 0.008
active: [4] 0.715

LZTR1 (UniProt Q8N653)
inactive: vemurafenib 0.026 | [1] -0.118 | barasertib 0.081 | [2] 0.002 | volasertib -0.125 | [3] -0.012 | [4] 0 | [5] -0.047 | saracatinib -0.031 | sotrastaurin 0.065 | alvocidib 0.178 | Tubastatin A -0.168 | [6] -0.001 | defactinib -0.036 | [7] -0.012 | encorafenib -0.039 | [8] 0.174 | alisertib -0.047 | [9] 0.137 | gefitinib 0.091

MAPK8 isoform 3 (UniProt P45983)
active: [6] 0.541
inactive: vemurafenib 0.06 | [1] 0.022 | barasertib 0.007 | [2] -0.123 | volasertib -0.02 | [3] -0.005 | [4] 0.013 | [5] 0.055 | saracatinib 0.027 | sotrastaurin 0.01 | alvocidib 0.01 | Tubastatin A -0.111 | defactinib -0.07 | [7] -0.144 | encorafenib 0.135 | [8] 0 | alisertib -0.022 | [9] 0.003 | gefitinib -0.042

MANBA (UniProt O00462)
inactive: vemurafenib -0.016 | [1] 0.051 | barasertib -0.015 | [2] -0.012 | volasertib -0.052 | [3] -0.003 | [4] -0.038 | [5] 0.066 | saracatinib 0.024 | sotrastaurin 0.015 | alvocidib -0.009 | Tubastatin A -0.005 | [6] 0.008 | defactinib 0.03 | [7] 0.028 | encorafenib 0.03 | [8] -0.048 | alisertib -0.007 | [9] -0.044 | gefitinib 0.027

Quoted from above (2 entries):
MARCHF5 (UniProt Q9NX47)
inactive: vemurafenib 0.019 | [1] 0.019 | barasertib 0.026 | [2] 0.089 | volasertib 0.024 | [3] -0.068 | [4] -0.106 | [5] 0.044 | saracatinib 0.068 | sotrastaurin -0.022 | alvocidib -0.045 | Tubastatin A 0.038 | [6] 0.004 | defactinib -0.009 | [7] 0.025 | encorafenib -0.026 | [8] 0.074 | alisertib 0.062 | [9] -0.006 | gefitinib 0

MAP4 (UniProt E7EVA0)
inactive: vemurafenib -0.019 | [1] 0.01 | barasertib 0.04 | [2] 0.125 | volasertib -0.021 | [3] -0.141 | [4] -0.024 | [5] 0.029 | saracatinib 0.024 | sotrastaurin -0.008 | alvocidib -0.074 | Tubastatin A 0.1 | [6] 0 | defactinib 0.01 | [7] 0.037 | encorafenib -0.04 | [8] -0.117 | alisertib -0.028 | [9] 0.054 | gefitinib 0.098

(further entries)

MAN2B1 (UniProt O00754)
inactive: vemurafenib 0.016 | [1] 0.024 | barasertib -0.041 | [2] 0.051 | volasertib 0.038 | [3] 0.009 | [4] 0.047 | [5] 0.011 | saracatinib -0.008 | sotrastaurin 0.08 | alvocidib 0.039 | Tubastatin A 0.008 | [6] -0.014 | defactinib 0.015 | [7] -0.013 | encorafenib 0.016 | [8] -0.027 | alisertib 0.083 | [9] -0.014 | gefitinib 0.083
